Results as given in patent US8389717B2.

Target: γ-secretase (Homo sapiens, UniProt P49768)
Test: Cellular assay: inhibition of Aβ42 secretion in H4 cells overexpressing human APP
Details: read-out: IC50 in vitro, human neuroglioma H4 cells overexpressing human APP, 22 hrs incubation
Experimental: Human neuroglioma H4 cells overexpressing human APP were plated at 30,000 cells/well/200 μl in 96-well plates in IMDM media containing 10% FCS, 0.2 mg/l Hygromycin B and incubated for 2 h at 37° C., 5% CO2 prior to adding test compounds.
Compounds for testing were dissolved in 100% Me2SO yielding in a 10 mM stock solution. Typically 12 μl of these solutions were further diluted in 1000 μl of IMDM media (w/o FCS,). Sub sequential 1:1 dilutions gave a ten point dose response curve. 100 μl of each dilution was added to the cells in 96-well plates. Appropriate controls using vehicle only and reference compound were applied to this assay. The final concentration of Me2SO was 0.4%. After incubation for 22 hrs at 37° C., 5% CO2, 50 μl supernatant was transferred into round-bottom 96-well polypropylene plates for detection of Aβ42. 50 μl assay buffer (50 mM Tris/C1, pH 7.4, 60 mM NaCl, 0.5% BSA, 1% TWEEN 20) was added to the wells followed by the addition of 100 μl of detection antibody (ruthenylated Aβ42-specific antibody BAP15 0.0625 μg/mL in assay buffer). […] Assay plates were incubated on a shaker for 3 hrs at room temperature and finally read in the Bioveris M8 Analyser according to the manufacturer's instructions (Bioveris).
IC50 values for inhibition of Aβ42 secretion were calculated by nonlinear regression fit analysis using XLfit 4.0 software (IDBS).

Molecule `COc1nc(Nc2ccc(-n3cnc(C)c3)c(OC)c2)nc(Oc2ccc(F)cc2)n1` has an IC50 of 870 nM.

The structures given here were assigned with low confidence; some may be wrong.
